Source: the supplement of paper PMC4604168 (melanoma cell lines)
Some of the results follow. Many values rest on one well or one pass, so single values are uncertain.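 Imaging used 1,536-well plates; nuclei positive for cleaved PARP by antibody were divided by total DNA-stained nuclei to yield the apoptosis fraction. Doses for screening kept most cells viable, and cell lines differ markedly in resting and induced cleaved-PARP levels.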

Legend:
Test in all cases: cleaved PARP positive nuclei fraction relative to DMSO control; melanoma cells; higher = more apoptosis
Details in all cases: library dose: low library concentration; 72 h
[1] = system: MZ2-MEL
[2] = system: MeWo
[3] = system: RPMI7951
[4] = system: RVH-421
[5] = system: SkMel28
[6] = system: SkMel2
[7] = system: SkMel30
[8] = system: SkMel5
[9] = system: UACC257
[10] = system: UACC62

SMILES | cleaved PARP positive nuclei fraction [1] [%] | cleaved PARP positive nuclei fraction [2] [%] | cleaved PARP positive nuclei fraction [3] [%] | cleaved PARP positive nuclei fraction [4] [%] | cleaved PARP positive nuclei fraction [5] [%] | cleaved PARP positive nuclei fraction [6] [%] | cleaved PARP positive nuclei fraction [7] [%] | cleaved PARP positive nuclei fraction [8] [%] | cleaved PARP positive nuclei fraction [9] [%] | cleaved PARP positive nuclei fraction [10] [%]
NC1(c2ccc(-c3nc4ccn5c(=O)[nH]nc5c4cc3-c3ccccc3)cc2)CCC1 + O=C(Oc1ccc([N+](=O)[O-])cc1)N1CCC(C(O)(c2ccc3c(c2)OCO3)c2ccc3c(c2)OCO3)CC1 [JZL184] (first compound 0.4 µM, partner dose 1 µM) | 85.5 | 132 | 198 | 79 | 220 | 30 | 67.7 | 153 | 161 | 173
CCCS(=O)(=O)Nc1ccc(F)c(C(=O)c2c[nH]c3ncc(Cl)cc23)c1F + C/C(O)=C(\C#N)C(=O)Nc1cc(Br)ccc1Br [LFM-A13] (first compound 0.08 µM, partner dose 2 µM) | 70 | 38.5 | 44.4 | 169 | 229 | 79.6 | 62.8 | 144 | 52.5 | 191
O=C(/C=C/c1cccnc1)NCCCCC1CCN(C(=O)c2ccccc2)CC1 + Cc1cc(SCc2sc(-c3ccc(C(F)(F)F)c(F)c3)nc2C)ccc1OCC(=O)O [GW0742] (first compound 0.01 µM, partner dose 2 µM) | 414 | 25.6 | 65.2 | 319 | 66.2 | 1950 | 104 | 85.4 | 94.4 | 105
Cc1cc(Nc2cc(N3CCN(C)CC3)nc(/C=C/c3ccccc3)n2)n[nH]1 + C/C(O)=C(\C#N)C(=O)Nc1cc(Br)ccc1Br [LFM-A13] (first compound 0.04 µM, partner dose 2 µM) | 99.4 | 21.3 | 129 | 188 | 76 | 106 | 34.7 | 239 | 101 | 150
C[As](C)SC[C@H](NC(=O)CC[C@H](N)C(=O)O)C(=O)NCC(=O)O [Darinaparsin] + CC(C)(C)c1cnc(CSc2cnc(NC(=O)C3CCNCC3)s2)o1 [SNS-032] (first compound 0.4 µM, partner dose 0.01 µM) | 205 | 162 | 187 | 78.2 | 60.5 | 118 | 59.3 | 327 | 70.4 | 82.7
Cc1ccc(Nc2nccc(N(C)c3ccc4c(C)n(C)nc4c3)n2)cc1S(N)(=O)=O [Pazopanib] + Cc1cc(SCc2sc(-c3ccc(C(F)(F)F)c(F)c3)nc2C)ccc1OCC(=O)O [GW0742] (first compound 0.4 µM, partner dose 2 µM) | 109 | 63.2 | 39 | 64.2 | 54.8 | 48.1 | 56.4 | 97.8 | 101 | 65
Cn1cc(C2=C(c3cn(C4CCN(Cc5ccccn5)CC4)c4ccccc34)C(=O)NC2=O)c2ccccc21 [Enzastaurin] + COc1cc2c(Oc3ccc4[nH]c(C)cc4c3F)ncnc2cc1OCCCN1CCCC1 [cediranib] (first compound 0.8 µM, partner dose 0.4 µM) | 39.8 | 66.9 | 133 | 74.7 | 109 | 159 | 118 | 109 | 150 | 213
N.N.[Cl][Pt][Cl] [cisplatin] + O=C1NC(=O)/C(=C/c2ccc(-c3ccc(F)cc3O)o2)S1 [AS252424] (first compound 1.6 µM, partner dose 1 µM) | 71.6 | 169 | 71.4 | 128 | 98.6 | 196 | 362 | 78.7 | 83.4 | 469
CC1(C)CCC(c2ccc(Cl)cc2)=C(CN2CCN(c3ccc(C(=O)NS(=O)(=O)c4ccc(N[C@H](CCN5CCOCC5)CSc5ccccc5)c(S(=O)(=O)C(F)(F)F)c4)cc3)CC2)C1 + Cc1cc(SCc2sc(-c3ccc(C(F)(F)F)c(F)c3)nc2C)ccc1OCC(=O)O [GW0742] (first compound 0.4 µM, partner dose 2 µM) | 428 | 349 | 452 | 221 | 172 | 179 | 55.8 | 200 | 245 | 82
Cn1cc(C2=C(c3cn(C4CCN(Cc5ccccn5)CC4)c4ccccc34)C(=O)NC2=O)c2ccccc21 [Enzastaurin] + O=S(=O)(c1ccccc1)N(CC(F)(F)F)c1ccc(C(O)(C(F)(F)F)C(F)(F)F)cc1 [T0901317] (first compound 0.8 µM, partner dose 1.4 µM) | 78.3 | 31.9 | 107 | 112 | 218 | 187 | 83.7 | 90.4 | 335 | 124
O=C(O)[C@@H]1[O][Sb](=[O])([O][Sb]2(=[O])[O][C@H]([C@H](O)CO)[C@H](O)[C@H](C(=O)O)[O]2)[O][C@H]([C@H](O)CO)[C@@H]1O (stereo not given in full) [stibogluconate] + O=C(Oc1ccc([N+](=O)[O-])cc1)N1CCC(C(O)(c2ccc3c(c2)OCO3)c2ccc3c(c2)OCO3)CC1 [JZL184] (first compound 2 µM, partner dose 1 µM) | 25.8 | 41.1 | 56.1 | 98.2 | 143 | 108 | 38.1 | 80.3 | 171 | 282
